In the supplement of paper PMC12067093, “Discovery and optimisation of a covalent ligand for TRIM25 and its application to targeted protein ubiquitination” (Chemical Science, 2025):
The other results are listed elsewhere or left out.

Sequences of proteins named here, by UniProt entry; tags and fusion partners are left off. A change or cut given only in a name is not applied to a line headed by its entry.
UniProt Q9NVH6: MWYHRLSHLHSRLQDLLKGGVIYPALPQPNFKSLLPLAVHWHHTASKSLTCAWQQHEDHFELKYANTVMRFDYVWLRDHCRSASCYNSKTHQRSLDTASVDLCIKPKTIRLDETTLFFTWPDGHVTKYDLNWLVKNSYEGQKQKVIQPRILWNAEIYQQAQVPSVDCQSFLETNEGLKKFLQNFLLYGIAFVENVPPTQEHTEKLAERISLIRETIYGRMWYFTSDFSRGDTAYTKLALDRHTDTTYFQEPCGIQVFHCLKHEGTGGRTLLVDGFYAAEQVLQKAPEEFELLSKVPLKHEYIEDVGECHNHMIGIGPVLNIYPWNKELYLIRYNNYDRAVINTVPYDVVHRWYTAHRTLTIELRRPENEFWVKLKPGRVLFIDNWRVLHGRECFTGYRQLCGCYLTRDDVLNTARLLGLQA
UniProt Q92547, whole entry, looked up: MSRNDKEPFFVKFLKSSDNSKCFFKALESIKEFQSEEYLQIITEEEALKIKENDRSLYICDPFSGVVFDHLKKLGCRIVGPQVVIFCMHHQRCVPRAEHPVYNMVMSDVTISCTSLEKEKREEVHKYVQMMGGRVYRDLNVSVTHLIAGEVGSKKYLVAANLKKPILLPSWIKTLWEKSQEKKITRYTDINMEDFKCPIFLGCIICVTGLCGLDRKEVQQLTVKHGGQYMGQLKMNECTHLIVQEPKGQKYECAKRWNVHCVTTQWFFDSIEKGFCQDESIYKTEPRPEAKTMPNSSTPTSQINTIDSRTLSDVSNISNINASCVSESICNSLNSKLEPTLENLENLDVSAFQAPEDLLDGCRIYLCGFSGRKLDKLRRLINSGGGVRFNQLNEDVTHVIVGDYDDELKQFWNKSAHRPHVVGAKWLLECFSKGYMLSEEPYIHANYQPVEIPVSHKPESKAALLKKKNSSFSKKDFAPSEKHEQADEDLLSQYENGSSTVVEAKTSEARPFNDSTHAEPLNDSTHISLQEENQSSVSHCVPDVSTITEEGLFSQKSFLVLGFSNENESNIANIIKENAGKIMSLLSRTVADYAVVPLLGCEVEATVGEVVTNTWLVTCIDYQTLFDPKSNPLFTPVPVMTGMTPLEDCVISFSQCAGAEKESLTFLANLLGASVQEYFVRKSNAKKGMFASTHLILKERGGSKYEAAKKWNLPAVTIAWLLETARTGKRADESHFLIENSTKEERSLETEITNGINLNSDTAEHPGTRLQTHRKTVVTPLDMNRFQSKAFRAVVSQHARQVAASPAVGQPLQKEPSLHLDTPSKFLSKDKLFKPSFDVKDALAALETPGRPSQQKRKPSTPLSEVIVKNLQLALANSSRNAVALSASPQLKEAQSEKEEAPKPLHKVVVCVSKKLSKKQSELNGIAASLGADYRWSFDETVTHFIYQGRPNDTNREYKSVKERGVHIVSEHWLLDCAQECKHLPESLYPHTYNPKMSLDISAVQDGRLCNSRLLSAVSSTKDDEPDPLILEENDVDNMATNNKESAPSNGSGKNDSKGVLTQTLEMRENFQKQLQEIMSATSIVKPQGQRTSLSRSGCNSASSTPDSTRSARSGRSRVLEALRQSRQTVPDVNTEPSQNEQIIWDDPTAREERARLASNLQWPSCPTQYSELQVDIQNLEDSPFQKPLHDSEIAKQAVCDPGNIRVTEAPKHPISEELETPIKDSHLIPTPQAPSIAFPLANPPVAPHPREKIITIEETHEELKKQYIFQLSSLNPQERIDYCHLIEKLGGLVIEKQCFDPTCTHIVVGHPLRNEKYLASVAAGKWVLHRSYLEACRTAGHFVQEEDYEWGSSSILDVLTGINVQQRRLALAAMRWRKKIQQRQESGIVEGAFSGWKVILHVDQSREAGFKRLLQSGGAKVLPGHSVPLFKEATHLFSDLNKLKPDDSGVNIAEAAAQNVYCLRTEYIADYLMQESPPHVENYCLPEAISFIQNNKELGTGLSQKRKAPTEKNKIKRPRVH

Columns and labels:
[1] = biological target: TMLHE_Q9NVH6_51_SLTCAWQQHEDHFELK (UniProt Q9NVH6); assay: probe-labelled cysteine peptide fold change vs DMSO (competition) (log2 fold change); higher = less target engagement (more negative = stronger competition); settings: THP-1, incubation time: 4 h
[2] = biological target: TOPBP1_Q92547_977_GVHIVSEHWLLDCAQECK (UniProt Q92547); assay: as above; settings: THP-1, incubation time: 4 h
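Also: competitive chemoproteomic profiling in live THP-1 cells with an iodoacetamide desthiobiotin (IA-DTB) probe, comparing probe-labelled peptide intensities in compound-treated cells against DMSO-treated controls.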

Compound: CC1Cc2ccccc2N1C(=O)C1CCCN(C(=O)CCl)C1 (mixture of isomers) [TRIM25 ligand 11 (diastereomer mixture)]
- probe-labelled cysteine peptide fold change ([1]; 10 µM): -0.101
- probe-labelled cysteine peptide fold change ([1]; 50 µM): -0.0646
- probe-labelled cysteine peptide fold change ([2]; 10 µM): 0.193
- probe-labelled cysteine peptide fold change ([2]; 50 µM): -0.0107
